The results in this text go back to paper doi:10.1101/2022.03.04.482948.

Chains of the proteins cited; added tags and fusions are not shown.
UniProt Q9UKV8: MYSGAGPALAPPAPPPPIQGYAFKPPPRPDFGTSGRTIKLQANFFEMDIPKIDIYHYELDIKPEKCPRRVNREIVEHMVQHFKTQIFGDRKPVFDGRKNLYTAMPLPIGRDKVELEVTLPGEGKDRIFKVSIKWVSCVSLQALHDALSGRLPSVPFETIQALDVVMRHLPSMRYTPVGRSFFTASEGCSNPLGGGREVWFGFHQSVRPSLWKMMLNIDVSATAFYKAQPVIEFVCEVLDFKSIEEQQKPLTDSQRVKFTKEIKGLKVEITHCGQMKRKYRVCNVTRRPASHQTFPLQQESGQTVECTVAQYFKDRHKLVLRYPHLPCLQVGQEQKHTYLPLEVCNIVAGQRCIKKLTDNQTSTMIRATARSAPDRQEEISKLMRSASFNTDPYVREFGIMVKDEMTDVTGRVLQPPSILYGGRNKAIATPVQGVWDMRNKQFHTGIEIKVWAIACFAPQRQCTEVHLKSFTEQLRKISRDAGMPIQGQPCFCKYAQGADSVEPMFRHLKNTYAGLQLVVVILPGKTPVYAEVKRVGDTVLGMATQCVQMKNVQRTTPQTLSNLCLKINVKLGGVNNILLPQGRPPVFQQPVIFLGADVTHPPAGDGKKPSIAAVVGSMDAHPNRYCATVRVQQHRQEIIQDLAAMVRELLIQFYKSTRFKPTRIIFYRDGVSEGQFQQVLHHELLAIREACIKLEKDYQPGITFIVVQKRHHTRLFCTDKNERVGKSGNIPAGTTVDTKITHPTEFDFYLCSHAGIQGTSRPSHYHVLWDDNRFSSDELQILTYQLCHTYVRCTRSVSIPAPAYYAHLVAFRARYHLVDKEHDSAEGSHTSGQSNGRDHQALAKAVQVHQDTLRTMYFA
UniProt P09405: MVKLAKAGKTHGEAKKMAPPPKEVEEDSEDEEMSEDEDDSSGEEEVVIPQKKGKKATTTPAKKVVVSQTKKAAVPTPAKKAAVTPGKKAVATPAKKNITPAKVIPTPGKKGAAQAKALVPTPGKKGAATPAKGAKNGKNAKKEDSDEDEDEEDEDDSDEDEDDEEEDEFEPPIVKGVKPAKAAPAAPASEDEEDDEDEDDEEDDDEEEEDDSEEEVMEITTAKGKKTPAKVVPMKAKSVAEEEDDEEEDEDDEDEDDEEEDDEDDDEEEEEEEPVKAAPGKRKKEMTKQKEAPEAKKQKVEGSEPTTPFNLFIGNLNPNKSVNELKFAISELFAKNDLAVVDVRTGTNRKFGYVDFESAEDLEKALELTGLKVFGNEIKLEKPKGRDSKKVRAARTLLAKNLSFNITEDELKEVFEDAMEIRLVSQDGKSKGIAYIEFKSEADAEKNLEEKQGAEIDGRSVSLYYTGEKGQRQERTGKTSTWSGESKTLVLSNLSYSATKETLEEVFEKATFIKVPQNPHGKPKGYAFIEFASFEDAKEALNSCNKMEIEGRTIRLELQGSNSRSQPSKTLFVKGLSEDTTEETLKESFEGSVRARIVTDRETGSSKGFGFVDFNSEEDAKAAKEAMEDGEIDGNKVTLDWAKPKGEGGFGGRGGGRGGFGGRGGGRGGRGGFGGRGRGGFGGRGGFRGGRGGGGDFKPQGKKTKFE

This assay has as its target FLAG-tagged AGO2, full-length (human) (UniProt Q9UKV8). Description: co-IP.

These are yes or no findings as the source states them, for the method shown. Binding seen in cells or lysates may run through a third protein. Some results given as binding are weak or reduced against the parent protein; the word gives no strength.

Consider Nucleolin (from UniProt P09405 1-707), for which the binding result is given as “binds”.
